Consider 4 molecules from paper PMC11637432.

Amino acid sequences for entries named in this document (tags omitted).
UniProt P48436: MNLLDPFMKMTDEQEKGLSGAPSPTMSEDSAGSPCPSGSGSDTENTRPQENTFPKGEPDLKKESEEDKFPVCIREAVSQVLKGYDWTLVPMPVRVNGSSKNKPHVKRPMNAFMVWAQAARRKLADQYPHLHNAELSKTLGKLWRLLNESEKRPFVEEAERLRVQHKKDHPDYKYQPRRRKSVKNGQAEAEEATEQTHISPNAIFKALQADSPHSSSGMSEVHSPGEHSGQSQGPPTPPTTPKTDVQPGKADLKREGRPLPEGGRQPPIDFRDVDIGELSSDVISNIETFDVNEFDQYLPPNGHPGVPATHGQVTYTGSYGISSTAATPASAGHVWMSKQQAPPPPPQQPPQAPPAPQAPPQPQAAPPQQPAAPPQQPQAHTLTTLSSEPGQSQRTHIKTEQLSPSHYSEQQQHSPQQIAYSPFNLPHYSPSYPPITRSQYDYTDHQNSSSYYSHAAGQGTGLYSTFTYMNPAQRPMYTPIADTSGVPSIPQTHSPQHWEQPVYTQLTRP
UniProt O75030: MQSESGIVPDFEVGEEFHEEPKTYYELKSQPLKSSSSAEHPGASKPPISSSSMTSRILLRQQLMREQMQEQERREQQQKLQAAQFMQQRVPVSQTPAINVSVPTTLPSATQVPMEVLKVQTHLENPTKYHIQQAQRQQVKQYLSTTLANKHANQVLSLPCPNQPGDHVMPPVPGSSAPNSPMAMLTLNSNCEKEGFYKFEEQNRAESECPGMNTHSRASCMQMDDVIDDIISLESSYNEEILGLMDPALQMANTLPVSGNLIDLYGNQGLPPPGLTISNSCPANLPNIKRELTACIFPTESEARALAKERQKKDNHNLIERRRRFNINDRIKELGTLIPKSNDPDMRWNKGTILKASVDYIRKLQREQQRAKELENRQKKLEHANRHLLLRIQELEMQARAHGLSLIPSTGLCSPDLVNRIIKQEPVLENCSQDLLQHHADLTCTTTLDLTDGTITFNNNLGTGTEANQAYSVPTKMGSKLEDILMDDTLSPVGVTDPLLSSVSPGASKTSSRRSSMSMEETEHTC

No constants are given. Whether binding was seen depends on the method and setting. Binding seen in cells or lysates may run through a third protein. Some results given as binding are weak or reduced against the parent protein; the word gives no strength. For some of these results: Where a sequence is shown, tags or fusion partners need not be part of it.

The target in one assay is T1, GST-BBS2 (UniProt Q9BXC9).
T1 sequence: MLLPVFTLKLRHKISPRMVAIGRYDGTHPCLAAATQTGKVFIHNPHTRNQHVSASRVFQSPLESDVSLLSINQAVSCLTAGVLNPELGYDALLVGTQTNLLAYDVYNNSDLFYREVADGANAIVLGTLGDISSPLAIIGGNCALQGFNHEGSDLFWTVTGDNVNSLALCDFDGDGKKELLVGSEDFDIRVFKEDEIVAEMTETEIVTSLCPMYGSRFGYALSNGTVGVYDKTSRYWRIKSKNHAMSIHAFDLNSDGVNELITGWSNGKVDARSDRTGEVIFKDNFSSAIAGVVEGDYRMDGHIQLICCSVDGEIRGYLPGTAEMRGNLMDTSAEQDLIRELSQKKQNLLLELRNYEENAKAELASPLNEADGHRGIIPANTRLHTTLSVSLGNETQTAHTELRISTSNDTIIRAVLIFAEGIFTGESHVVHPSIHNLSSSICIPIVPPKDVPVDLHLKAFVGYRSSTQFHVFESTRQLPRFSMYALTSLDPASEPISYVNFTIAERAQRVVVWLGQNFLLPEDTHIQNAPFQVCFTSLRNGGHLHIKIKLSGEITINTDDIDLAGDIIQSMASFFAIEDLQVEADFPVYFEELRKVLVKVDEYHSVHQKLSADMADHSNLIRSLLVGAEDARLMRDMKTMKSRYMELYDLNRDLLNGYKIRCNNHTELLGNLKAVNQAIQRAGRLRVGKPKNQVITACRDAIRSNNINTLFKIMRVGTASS
Briefly: pull-down; GST-tagged BBSome proteins on Glutathione Sepharose 4B beads incubated with HEK293T lysate expressing MC1R-3×Flag, 4 h at 4°C; GST buffer (150 mM NaCl, 1 mM MgCl2, 50 mM Hepes, 1 mM EGTA, 0.5% Triton X-100, pH 7.4); only the target purified.

Another assay has as its target Sox9-3×Flag (UniProt P48436). Nature of the assay: co-IP; HEK293T cells transfected with Sox9-3×Flag and MITF-HA; immunoprecipitation with antibodies against Flag and against HA.
For a further assay, the target named is T2, C315S MC1R-3×Flag (UniProt Q01726).
T2 sequence: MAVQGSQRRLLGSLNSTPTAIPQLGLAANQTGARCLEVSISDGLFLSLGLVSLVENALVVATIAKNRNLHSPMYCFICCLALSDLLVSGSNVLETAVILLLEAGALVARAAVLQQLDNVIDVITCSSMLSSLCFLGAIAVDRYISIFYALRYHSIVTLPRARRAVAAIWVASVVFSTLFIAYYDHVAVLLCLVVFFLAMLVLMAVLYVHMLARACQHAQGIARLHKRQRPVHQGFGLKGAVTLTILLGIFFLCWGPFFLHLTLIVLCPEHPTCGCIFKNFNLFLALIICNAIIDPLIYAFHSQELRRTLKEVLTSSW
Briefly: co-IP; HEK293T cells transfected with variants of MC1R-3×Flag and BBS2-HA; immunoprecipitation with the Flag antibody.

The next assay concerns the target MC1R-3×Flag (UniProt Q01726). The assay is described as above.
The target of the next assay is T3, MC1R-3×Flag R151C (UniProt Q01726).
T3 sequence: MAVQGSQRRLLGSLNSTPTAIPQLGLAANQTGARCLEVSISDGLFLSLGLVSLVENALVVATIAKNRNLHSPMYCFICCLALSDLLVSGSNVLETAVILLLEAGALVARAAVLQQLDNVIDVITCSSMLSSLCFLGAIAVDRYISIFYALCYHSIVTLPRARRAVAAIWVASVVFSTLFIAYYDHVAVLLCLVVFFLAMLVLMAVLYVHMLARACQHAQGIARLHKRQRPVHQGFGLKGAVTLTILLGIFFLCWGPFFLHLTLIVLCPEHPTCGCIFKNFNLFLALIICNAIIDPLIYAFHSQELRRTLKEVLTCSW
The assay is described as above.

A further assay has as its target T4, MC1R-3×Flag R160W (UniProt Q01726).
T4 sequence: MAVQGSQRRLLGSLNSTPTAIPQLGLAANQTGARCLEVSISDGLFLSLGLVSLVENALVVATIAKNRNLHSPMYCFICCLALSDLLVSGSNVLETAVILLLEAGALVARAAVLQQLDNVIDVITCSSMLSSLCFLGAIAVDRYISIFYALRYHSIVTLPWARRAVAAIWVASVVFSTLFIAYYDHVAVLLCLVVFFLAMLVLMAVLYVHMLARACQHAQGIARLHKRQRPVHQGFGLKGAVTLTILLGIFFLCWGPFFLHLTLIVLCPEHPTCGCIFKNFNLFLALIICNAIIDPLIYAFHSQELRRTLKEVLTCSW
Described as above.

The next assay concerns the target MC1R-mEmerald (UniProt Q01726). Nature of the assay: co-IP; A375 MC1R-KO cells transfected with MC1R-mEmerald; UV then with or without 100 nM α-MSH for 36 h without serum; with or without BBS2 shRNAs; lysis in 50 mM Tris, 1% Triton X-100, 0.5 mM EDTA, 0.5 mM EGTA, 150 mM NaCl, 10% glycerol, pH 7.4; blots for endogenous BBSome proteins.

Turning to “MC1R-3×Flag (from UniProt Q01726 1-317) (receptor)”, the binding result in the assay with GST-BBS2 was “binds”. Regarding MITF-HA (from UniProt O75030 1-526), the binding entry with Sox9-3×Flag is “binds”.

B1: BBS2-HA (protein, UniProt Q9BXC9 1-721)
chain: MLLPVFTLKLRHKISPRMVAIGRYDGTHPCLAAATQTGKVFIHNPHTRNQHVSASRVFQSPLESDVSLLSINQAVSCLTAGVLNPELGYDALLVGTQTNLLAYDVYNNSDLFYREVADGANAIVLGTLGDISSPLAIIGGNCALQGFNHEGSDLFWTVTGDNVNSLALCDFDGDGKKELLVGSEDFDIRVFKEDEIVAEMTETEIVTSLCPMYGSRFGYALSNGTVGVYDKTSRYWRIKSKNHAMSIHAFDLNSDGVNELITGWSNGKVDARSDRTGEVIFKDNFSSAIAGVVEGDYRMDGHIQLICCSVDGEIRGYLPGTAEMRGNLMDTSAEQDLIRELSQKKQNLLLELRNYEENAKAELASPLNEADGHRGIIPANTRLHTTLSVSLGNETQTAHTELRISTSNDTIIRAVLIFAEGIFTGESHVVHPSIHNLSSSICIPIVPPKDVPVDLHLKAFVGYRSSTQFHVFESTRQLPRFSMYALTSLDPASEPISYVNFTIAERAQRVVVWLGQNFLLPEDTHIQNAPFQVCFTSLRNGGHLHIKIKLSGEITINTDDIDLAGDIIQSMASFFAIEDLQVEADFPVYFEELRKVLVKVDEYHSVHQKLSADMADHSNLIRSLLVGAEDARLMRDMKTMKSRYMELYDLNRDLLNGYKIRCNNHTELLGNLKAVNQAIQRAGRLRVGKPKNQVITACRDAIRSNNINTLFKIMRVGTASS
On to B1, for which the binding entry with C315S MC1R-3×Flag, in the assay with MC1R-3×Flag, in the assay with MC1R-3×Flag R151C and with MC1R-3×Flag R160W was “binds” in each case.

B2: endogenous BBS2 (protein, UniProt Q9BXC9 1-721)
chain: MLLPVFTLKLRHKISPRMVAIGRYDGTHPCLAAATQTGKVFIHNPHTRNQHVSASRVFQSPLESDVSLLSINQAVSCLTAGVLNPELGYDALLVGTQTNLLAYDVYNNSDLFYREVADGANAIVLGTLGDISSPLAIIGGNCALQGFNHEGSDLFWTVTGDNVNSLALCDFDGDGKKELLVGSEDFDIRVFKEDEIVAEMTETEIVTSLCPMYGSRFGYALSNGTVGVYDKTSRYWRIKSKNHAMSIHAFDLNSDGVNELITGWSNGKVDARSDRTGEVIFKDNFSSAIAGVVEGDYRMDGHIQLICCSVDGEIRGYLPGTAEMRGNLMDTSAEQDLIRELSQKKQNLLLELRNYEENAKAELASPLNEADGHRGIIPANTRLHTTLSVSLGNETQTAHTELRISTSNDTIIRAVLIFAEGIFTGESHVVHPSIHNLSSSICIPIVPPKDVPVDLHLKAFVGYRSSTQFHVFESTRQLPRFSMYALTSLDPASEPISYVNFTIAERAQRVVVWLGQNFLLPEDTHIQNAPFQVCFTSLRNGGHLHIKIKLSGEITINTDDIDLAGDIIQSMASFFAIEDLQVEADFPVYFEELRKVLVKVDEYHSVHQKLSADMADHSNLIRSLLVGAEDARLMRDMKTMKSRYMELYDLNRDLLNGYKIRCNNHTELLGNLKAVNQAIQRAGRLRVGKPKNQVITACRDAIRSNNINTLFKIMRVGTASS
B2: in the assay with MC1R-mEmerald, the binding entry is “binds”.
